Experimental data: PubChem BioAssay AID1259254 (NCATS, 2017)

- Test: 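Finding genes that stop cells copying their DNA twice in one cycle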 (primary screen)
- System: human HCT116 colorectal cancer cells
- Reagents: single siRNA against human genes
- Time to read-out: 3 days
- Read-out: 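Nuclei stained with Hoechst and imaged; cell-cycle phase assigned by DNA content; G2 share scaled per plate, non-targeting siRNA 0%, GMNN siRNA 100%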
- Scale: G2 robust z-score and G2 cells, % of GMNN control: higher = more G2 cells, more excess DNA replication; raw share of cells in G2: higher = larger share of cells with G2 DNA content
- Call rule: 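An siRNA counts as active if its G2 robust z-score lies at least 5 MADs above the screen median; here such calls match roughly 38% of GMNN control or more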
Shown is one part, drawn at random, of about 59,000 reagents tested. Of all reagents, about 1,550 (2.6%) got an active call. 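G2 share is only a proxy for re-replication; each gene was hit by three separate siRNAs, and active genes were retested.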 The raw values are shown without normalisation. A number with no mark means an inactive call. The numbers tell different reagents against one gene apart. The record does not give: the amount of reagent.

gene | reagent | G2 robust z-score | G2 cells, % of GMNN control | raw share of cells in G2 (%)
METTL25B | 1 | -0.505 | -0.587 | 3.63
METTL25B | 2 | -1.14 | -5.06 | 2.64
METTL25B | 3 | -0.458 | -0.253 | 3.17
TMEM95 | 1 | 0.433 | 6.02 | 6.61
TMEM95 | 2 | 0.312 | 5.16 | 5.76
TMEM95 | 3 | -0.63 | -1.47 | 2.62
GPN1 | 1 | 0.418 | 5.91 | 5.89
GPN1 | 2 | 7.06 (active) | 52.7 | 27.5
GPN1 | 3 | 1.52 | 13.6 | 8.72
OR4C12 | 1 | 0.623 | 7.35 | 6.32
OR4C12 | 2 | 2.62 | 21.4 | 11.3
OR4C12 | 3 | -0.633 | -1.49 | 2.81
LRIT2 | 1 | 2.19 | 18.4 | 10.3
LRIT2 | 2 | 2.36 | 19.5 | 11.8
LRIT2 | 3 | 0.927 | 9.49 | 8.01
SLC8B1 | 1 | -0.104 | 2.23 | 6.36
SLC8B1 | 2 | -0.704 | -1.99 | 3.47
SLC8B1 | 3 | -1.32 | -6.29 | 2.46
MIR99AHG | 1 | 0.739 | 8.16 | 8.13
MIR99AHG | 2 | 0.279 | 4.93 | 5.46
MIR99AHG | 3 | -0.586 | -1.16 | 2.9
ZNF497 | 1 | 0.904 | 9.33 | 6.3
ZNF497 | 2 | 0.091 | 3.61 | 4.42
ZNF497 | 3 | 0.376 | 5.61 | 5.49
REM1 | 1 | -1.19 | -5.43 | 3.7
REM1 | 2 | -0.633 | -1.49 | 3.69
REM1 | 3 | -1.15 | -5.15 | 2.3
STT3A | 1 | 0.621 | 7.34 | 8.48
STT3A | 2 | -0.57 | -1.04 | 4.67
STT3A | 3 | 0.133 | 3.9 | 5.63
CEP152 | 1 | 0.913 | 9.39 | 6.69
CEP152 | 2 | 0.137 | 3.93 | 6.53
CEP152 | 3 | -0.174 | 1.74 | 4.86
SCAMP5 | 1 | -0.158 | 1.85 | 5.38
SCAMP5 | 2 | -0.273 | 1.04 | 6.45
SCAMP5 | 3 | 0.349 | 5.42 | 6.98
LINC02903 | 1 | -0.505 | -0.587 | 2.58
LINC02903 | 2 | 2.01 | 17.1 | 9.73
LINC02903 | 3 | -0.324 | 0.685 | 3.19
DSCC1 | 1 | 0.14 | 3.95 | 6.3
DSCC1 | 2 | -0.847 | -2.99 | 3.27
DSCC1 | 3 | -0.634 | -1.49 | 2.3
ZNF271P | 1 | -0.577 | -1.09 | 3.16
ZNF271P | 2 | -1.34 | -6.45 | 3.12
ZNF271P | 3 | -0.471 | -0.346 | 3.19
ZSWIM8 | 1 | 4.17 | 32.3 | 17.7
ZSWIM8 | 2 | 2.41 | 19.9 | 12.4
ZSWIM8 | 3 | 1.13 | 10.9 | 7.26
ZNF16 | 1 | -0.438 | -0.113 | 3.49
ZNF16 | 2 | 0.518 | 6.61 | 8.93
ZNF16 | 3 | 1.35 | 12.5 | 8.56
TPMT | 1 | -0.962 | -3.8 | 3.22
TPMT | 2 | -0.188 | 1.64 | 4.87
TPMT | 3 | -0.265 | 1.11 | 6.07
ETS1 | 1 | 1.03 | 10.2 | 8.94
ETS1 | 2 | -1.12 | -4.92 | 3.39
ETS1 | 3 | 0.588 | 7.11 | 6.19
TEX2 | 1 | 0.605 | 7.22 | 7.3
TEX2 | 2 | 0.0818 | 3.54 | 5.61
TEX2 | 3 | -0.979 | -3.92 | 1.89
COL1A2 | 1 | 0.414 | 5.88 | 5.79
COL1A2 | 2 | 0.344 | 5.38 | 7.37
COL1A2 | 3 | 0.835 | 8.84 | 6.32
PDE8A | 1 | -0.71 | -2.03 | 3.69
PDE8A | 2 | -0.543 | -0.855 | 3.24
PDE8A | 3 | -1.01 | -4.1 | 3.46
IPO8 | 1 | -0.565 | -1.01 | 3.52
IPO8 | 2 | 0.664 | 7.64 | 9.02
IPO8 | 3 | 0.186 | 4.28 | 8.17
INO80B | 1 | -1.13 | -4.99 | 2.45
INO80B | 2 | -0.35 | 0.504 | 3.61
INO80B | 3 | -1.17 | -5.24 | 0.814
LINC02551 | 1 | -0.548 | -0.89 | 3.49
LINC02551 | 2 | -1.19 | -5.39 | 1.38
LINC02551 | 3 | -0.524 | -0.72 | 4.49
GNPTG | 1 | 1.68 | 14.8 | 11.6
GNPTG | 2 | -1.39 | -6.84 | 1.72
GNPTG | 3 | 0.119 | 3.8 | 6.2
SLAMF1 | 1 | 0.31 | 5.15 | 5.66
SLAMF1 | 2 | -0.675 | -1.78 | 3.94
SLAMF1 | 3 | -1.12 | -4.9 | 4.03
CLN5 | 1 | -0.707 | -2.01 | 4.36
CLN5 | 2 | 2.58 | 21.1 | 11.8
CLN5 | 3 | 0.588 | 7.11 | 6.31
HSPB2 | 1 | 1.06 | 10.5 | 9.74
HSPB2 | 2 | -0.999 | -4.06 | 1.63
HSPB2 | 3 | -0.112 | 2.18 | 4.33

Entries listed so far called active (1):
gene | reagent | G2 robust z-score | G2 cells, % of GMNN control | raw share of cells in G2 (%)
GPN1 | 2 | 7.06 (active) | 52.7 | 27.5
